PubChem BioAssay AID1259405 | NCATS, 2018
Assay: 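Knock-downs that lift recombinant protein yield in hamster ovary cells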 (primary screen). System: Chinese hamster CHO-K1 ovary cells with stable secreted eGFP expression. Reagents: single siRNA against mouse genes, 0.8 pmol siRNA per well (2 µl of 400 nM stock). Time to read-out: 3 days. Measured: 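Percent of the per-plate non-targeting control median for intracellular GFP per well by laser scanning cytometry and for cell viability by ATP luminescence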. Reading the numbers: GFP, % of control: higher = more GFP per well, higher productivity; viability (ATP), % of control: higher = more viable cells (more ATP). Rule for the call: 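a knock-down is called active if GFP reaches 120% or more of non-targeting control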.
The deposit covers about 50,000 reagents; shown is an unselected part. Of all reagents, about 4,000 (8%) are marked active. 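Mouse siRNA library applied to hamster cells; one well for each siRNA.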 No sequences are given here.

| target | PubChem SID | GFP, % of control | viability (ATP), % of control | Call |
| --- | --- | --- | --- | --- |
| Trpm8 | SID363574819 | 61.3 | 62.1 | inactive |
| Trpm8 | SID363575875 | 103 | 119 | inactive |
| Trpm8 | SID363580451 | 68.7 | 75.7 | inactive |
| Ncbp2as2 (Ncbp2 antisense 2 (head to head)) | SID363540849 | 85.4 | 112 | inactive |
| Ncbp2as2 (Ncbp2 antisense 2 (head to head)) | SID363543300 | 68.3 | 89.8 | inactive |
| Ncbp2as2 (Ncbp2 antisense 2 (head to head)) | SID363552793 | 126 | 102 | active |
| Cuta (cutA divalent cation tolerance homolog) | SID363547826 | 65.1 | 25.4 | inactive |
| Cuta (cutA divalent cation tolerance homolog) | SID363558595 | 104 | 84.2 | inactive |
| Cuta (cutA divalent cation tolerance homolog) | SID363560353 | 120 | 90.6 | inactive |
| Il17b (interleukin 17B) | SID363541478 | 59.7 | 36.8 | inactive |
| Il17b (interleukin 17B) | SID363556105 | 41.8 | 32 | inactive |
| Il17b (interleukin 17B) | SID363566394 | 68.1 | 56.4 | inactive |
| Oser1 (oxidative stress responsive serine rich 1) | SID363542463 | 85.2 | 87 | inactive |
| Oser1 (oxidative stress responsive serine rich 1) | SID363551954 | 77.8 | 65.6 | inactive |
| Oser1 (oxidative stress responsive serine rich 1) | SID363559559 | 96.5 | 101 | inactive |
| Or52a20 (olfactory receptor family 52 subfamily A member 20) | SID363544807 | 119 | 84.1 | inactive |
| Or52a20 (olfactory receptor family 52 subfamily A member 20) | SID363551135 | 76.9 | 79.1 | inactive |
| Or52a20 (olfactory receptor family 52 subfamily A member 20) | SID363557684 | 56.2 | 37.6 | inactive |
| Uba5 (ubiquitin-like modifier activating enzyme 5) | SID363572726 | 60.7 | 79.6 | inactive |
| Uba5 (ubiquitin-like modifier activating enzyme 5) | SID363578006 | 81.8 | 81.4 | inactive |
| Uba5 (ubiquitin-like modifier activating enzyme 5) | SID363582230 | 36.7 | 87.6 | inactive |
| Anln (anillin, actin binding protein) | SID363546693 | 86 | 46.3 | inactive |
| Anln (anillin, actin binding protein) | SID363548449 | 131 | 119 | active |
| Anln (anillin, actin binding protein) | SID363560627 | 86.5 | 49.4 | inactive |
| Mov10l1 (Mov10 like RISC complex RNA helicase 1) | SID363545546 | 121 | 70.1 | active |
| Mov10l1 (Mov10 like RISC complex RNA helicase 1) | SID363549059 | 86.1 | 80.2 | inactive |
| Mov10l1 (Mov10 like RISC complex RNA helicase 1) | SID363562865 | 56.1 | 71 | inactive |
| A330041J22Rik (RIKEN cDNA A330041J22 gene) | SID363542730 | 125 | 67 | active |
| A330041J22Rik (RIKEN cDNA A330041J22 gene) | SID363546247 | 66.8 | 55.4 | inactive |
| A330041J22Rik (RIKEN cDNA A330041J22 gene) | SID363548003 | 73.2 | 85.6 | inactive |
| Zscan29 (zinc finger SCAN domains 29) | SID363555468 | 68.4 | 69.2 | inactive |
| Zscan29 (zinc finger SCAN domains 29) | SID363564129 | 93.6 | 49.3 | inactive |
| Zscan29 (zinc finger SCAN domains 29) | SID363587675 | 94 | 105 | inactive |
| Katnal2 (katanin p60 subunit A-like 2) | SID363545572 | 122 | 96.2 | active |
| Katnal2 (katanin p60 subunit A-like 2) | SID363549085 | 95.1 | 84.4 | inactive |
| Katnal2 (katanin p60 subunit A-like 2) | SID363562891 | 64.1 | 53.5 | inactive |

In a second layout: entries from further up.
target	PubChem SID	GFP, % of control	viability (ATP), % of control	Call
Or52a20 (olfactory receptor family 52 subfamily A member 20)	SID363544807	119	84.1	inactive
Or52a20 (olfactory receptor family 52 subfamily A member 20)	SID363551135	76.9	79.1	inactive
Or52a20 (olfactory receptor family 52 subfamily A member 20)	SID363557684	56.2	37.6	inactive
Uba5 (ubiquitin-like modifier activating enzyme 5)	SID363572726	60.7	79.6	inactive
Uba5 (ubiquitin-like modifier activating enzyme 5)	SID363578006	81.8	81.4	inactive
Uba5 (ubiquitin-like modifier activating enzyme 5)	SID363582230	36.7	87.6	inactive
